# Results are given in words; binding and its absence hold for the method and conditions named. Some results given as binding are weak or reduced against the parent protein; the word gives no strength.
# Protein sequences, listed by entry. Tags and fused reporters are not part of them. Residues count along the entry.
# UniProt P02769, residues 25-607: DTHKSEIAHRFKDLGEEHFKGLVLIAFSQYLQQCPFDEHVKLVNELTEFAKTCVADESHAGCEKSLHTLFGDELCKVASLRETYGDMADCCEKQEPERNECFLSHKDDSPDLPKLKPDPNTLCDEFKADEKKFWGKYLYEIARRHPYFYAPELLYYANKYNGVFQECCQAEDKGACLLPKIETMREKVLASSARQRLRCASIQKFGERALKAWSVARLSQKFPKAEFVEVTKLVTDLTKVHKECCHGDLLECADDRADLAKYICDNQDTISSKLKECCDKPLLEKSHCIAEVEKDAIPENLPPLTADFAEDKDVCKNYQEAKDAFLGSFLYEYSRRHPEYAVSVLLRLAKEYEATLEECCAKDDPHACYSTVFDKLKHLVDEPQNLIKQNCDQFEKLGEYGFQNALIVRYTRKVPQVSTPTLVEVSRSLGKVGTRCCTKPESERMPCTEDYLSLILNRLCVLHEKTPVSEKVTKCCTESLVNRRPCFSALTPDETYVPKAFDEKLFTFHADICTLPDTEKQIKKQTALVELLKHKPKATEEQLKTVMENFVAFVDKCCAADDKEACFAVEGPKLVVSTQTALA
# T1: Recombinant human CD40L (human, UniProt P29965 108-261, limits assumed)
# T1 construct: also called CD40 ligand
# T1 sequence (looked up): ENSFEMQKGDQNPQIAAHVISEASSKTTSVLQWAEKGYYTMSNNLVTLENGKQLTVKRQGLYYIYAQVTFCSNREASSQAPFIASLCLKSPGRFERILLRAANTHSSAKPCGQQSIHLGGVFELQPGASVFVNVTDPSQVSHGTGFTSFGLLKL
# Biological target: T1, Recombinant human CD40L
# Assay: CD40L receptor binding assay: inhibition of CD40L (3 ng/ml) binding to coated CD40/Fc
row,Binder,binding
1,"DOM8-24cys (other, VH dAb DOM8-24 with an engineered C-terminal cysteine (last Ser replaced by Cys); also called unmodified protein) VH: ASTEVQLLESGGGLVQPGGSLRLSCAASGFTFSNYQMAWVRQAPGKGLEWVSSITSEGGSTYYADSVKGRFTISRDNSKNTLYLQMNSLRAEDTAVYYCAKPGKNFDYWGQGTLVTVSC",binds

# Biological target: T1, Recombinant human CD40L
# Assay: CD40L receptor binding assay (RBA, ELISA): dAb titrated against 3 ng/ml CD40L binding to plate-coated CD40/Fc
row,Binder,binding
1,"DOM8-24cys (other, VH dAb DOM8-24 with an engineered C-terminal cysteine (last Ser replaced by Cys); also called unmodified protein) VH: ASTEVQLLESGGGLVQPGGSLRLSCAASGFTFSNYQMAWVRQAPGKGLEWVSSITSEGGSTYYADSVKGRFTISRDNSKNTLYLQMNSLRAEDTAVYYCAKPGKNFDYWGQGTLVTVSC",binds
2,"30K PEG-MAL PEGylated DOM8-24cys (other, 30K PEG-MAL on the engineered C-terminal cysteine, PEGylated monomer; also called 30K PEG DOM8-24cys) VH: ASTEVQLLESGGGLVQPGGSLRLSCAASGFTFSNYQMAWVRQAPGKGLEWVSSITSEGGSTYYADSVKGRFTISRDNSKNTLYLQMNSLRAEDTAVYYCAKPGKNFDYWGQGTLVTVSC",binds
3,"40K PEG2-MAL PEGylated DOM8-24cys (other, 40K PEG2-MAL on the engineered C-terminal cysteine, PEGylated monomer; also called 40K PEG DOM8-24cys) VH: ASTEVQLLESGGGLVQPGGSLRLSCAASGFTFSNYQMAWVRQAPGKGLEWVSSITSEGGSTYYADSVKGRFTISRDNSKNTLYLQMNSLRAEDTAVYYCAKPGKNFDYWGQGTLVTVSC",binds

# Biological target: T1, Recombinant human CD40L
# Assay: sandwich ELISA for simultaneous binding: HSA coated on the plate, doubling dilutions of the dimer, detection with 5 nM biotinylated CD40L and streptavidin-HRP
row,Binder,binding
1,DOM7h-26-DOM-24 (bispecific antibody) LEKREVQLLESGGGLVQPGGSLRLSCTASGFTFDEYNMSWVRQAPGKGLEWVSTILPHGDRTYYADSVKGRFTISRDNSKNTLYLQMNSLRAEDTAVYYCAKQDPLYRFDYWGQGTLVTVSSAAAEVQLLESGGGLVQPGGSLRLSCAASGFTFSNYQMAWVRQAPGKGLEWVSSITSEGGSTYYADSVKGRFTISRDNSKNTLYLQMNSLRAEDTAVYYCAKPGKNFDYWGQGTLVTVSS,binds

# Biological target: T1, Recombinant human CD40L
# Assay: CD40L/CD40-Fc receptor binding assay
row,Binder,binding
1,DOM.96 (protein) VH: EVQPLESGGGLVQPGGSLRLSCAASGFTFTDYKMLWVRQAPGKGLEWVSSISPSGRWTYYADSVKGRFTISRDNSKNTLYLQMNSLRAEDTAVYYCAKSLFEGSFDYWGQGTLVTVSS,binds
2,DOM.165 (protein) VL: DIQMTQSPSSLSASVGDRVTITCRASQSISTDLEWYQQKLGKAPKLLIYDASLLQSGVPSRFSGSGSGTDFTLTISSLQPEDFATYYCQQYSSLPVTFGQGTKVEIKR,binds
3,DOM.166 (protein) VL: DIQMTQSPSSLSASVGDRVTITCRASQPITTSLEWYQQKPGKAPKLLIYDASMLQSGVPSRFSGSGSGTDFTLTISSLQPEDFATYYCQQYWVTPVTFGQGTKVEIKR,binds
4,DOM.167 (protein) VL: DIQMTQSPSSLSASVGDRVTITCRASQNIHTNLEWYQQKPGKAPKLLIYDGSMLQSGVPSRFSGSGSGTDFTLTISSLQPEDFATYYCQQYSANPVTFGQGTKVGIKR,binds
5,DOM.168 (protein) VL: DIQMTQSPSSLSASVGDRVTITCRASQWIHTDLEWYQQKPGKAPKLLIYDGSMLQSGVPSRFSGSGSGTDFTLTISSLQPEDFATYYCQQYSVSPVTFGQGTKVEIKR,binds
6,DOM.169 (protein) VL: DIQMTQSPSSLSASVGDRVTITCRASQSIDNNLEWYQQKPGEAPKLLIYDGSLLQSGVPSRFSGSGSGTDFTLTISSLQPEDFATYYCQQYHLHPVTFGQGTKVEIKR,binds
7,DOM.170 (protein) VL: DIQMTQSPSSLSASVGDRVTITCRASQDIDTNLEWYQQKPGEAPKLLIYDRSTLQSGVPSRFSGSGSGTDFTLTISSLQPEDFATYYCQQYDSYPVTFGQGTKVEIKR,binds
8,DOM.171 (protein) VL: DIQMTQSPSSLSASVGDRVTITCRASQSIESNLEWYQQKPGKAPKLLIYNASELQSGVPSRFSGSGSGTDFTLTISSLRPEDFATYYCQQYDQWPTTFGQGTKVEIKR,binds
9,DOM.172 (protein) VL: DIQMTQSPSSLSASVGDRVTITCRASQAIGNTLRWYQQKPGKAPKLLIYLSSRLQSGVPSRFSGSGSGTDFTLTISSLQPEDFATYYCQQLKKPPYTFGQGTKVEIKR,binds
10,DOM.173 (protein) VL: DIQMTQSPSSLSASVGDRVTITCRASQKIKNRLAWYQQKPGKAPKLLIYEVSHLQSGVPSRFSGSGSGTDFTLTIGSLQPEDFATYYCQQRRQSPYTFGQGTKVEIKR,binds
11,DOM.174 (protein) VL: DIQMTQSPSSLSASVGDRVTITCRASEDIGEELFWYQQKPGKAPKLLIYSASTLQSEVPSRFSGSGSGTDFTLTISSLQHEDFATYYCQQVYEWPYTFGQGTKVEIKR,binds
12,DOM.179 (protein) VH: EVQLLESGGGLVQPGGSLRLSCAASGFTFSAYDMMWVRQAPGKGLEWVSRISPQGQRTYYADSVKGRFTISRDNSKNTLYLQMNSLRAEDTAVYYCAKIRGQSRIPMRFDYWGQGTLV,binds

# Biological target: BSA (bovine) (UniProt P02769)
# Assay: same ELISA with control BSA antigen on the plate in place of HSA; detection with biotinylated CD40L and streptavidin-HRP
row,Binder,binding
1,DOM7h-26-DOM-24 (bispecific antibody) LEKREVQLLESGGGLVQPGGSLRLSCTASGFTFDEYNMSWVRQAPGKGLEWVSTILPHGDRTYYADSVKGRFTISRDNSKNTLYLQMNSLRAEDTAVYYCAKQDPLYRFDYWGQGTLVTVSSAAAEVQLLESGGGLVQPGGSLRLSCAASGFTFSNYQMAWVRQAPGKGLEWVSSITSEGGSTYYADSVKGRFTISRDNSKNTLYLQMNSLRAEDTAVYYCAKPGKNFDYWGQGTLVTVSS,no binding (tested: 1/2 dilution (concentration not given))

# Reference: patent US20090297524A1 (DOMANTIS, published 2009)
